Article PMC6033357
No constants are given. Whether binding was seen depends on the method and setting. Binding seen in cells or lysates may run through a third protein. Tags and fused reporters may be left off the sequences shown.

Biological target: T1, Nucleus accumbens-associated protein 1 (NAC1), endogenous (human (endogenous in HeLa, ovarian cancer cell lines and HEK293T)) (UniProt Q96RE7)
T1 sequence: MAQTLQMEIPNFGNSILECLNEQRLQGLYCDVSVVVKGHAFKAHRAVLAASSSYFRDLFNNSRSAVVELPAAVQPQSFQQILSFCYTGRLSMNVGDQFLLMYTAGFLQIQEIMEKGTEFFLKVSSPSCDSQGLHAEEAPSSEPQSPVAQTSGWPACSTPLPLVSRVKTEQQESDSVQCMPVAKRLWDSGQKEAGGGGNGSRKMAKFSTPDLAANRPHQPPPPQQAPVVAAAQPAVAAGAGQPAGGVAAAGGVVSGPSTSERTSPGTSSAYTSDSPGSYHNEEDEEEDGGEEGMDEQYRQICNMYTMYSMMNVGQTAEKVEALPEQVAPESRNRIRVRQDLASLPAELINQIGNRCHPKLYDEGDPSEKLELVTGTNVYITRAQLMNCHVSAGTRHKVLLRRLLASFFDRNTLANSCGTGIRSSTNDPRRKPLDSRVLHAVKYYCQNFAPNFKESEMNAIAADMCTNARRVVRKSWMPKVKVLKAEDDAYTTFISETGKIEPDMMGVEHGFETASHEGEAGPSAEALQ
Assay: co-IP; FLAG-tagged wild-type or truncated CARM1 expressed in HEK293T cells, immunoprecipitated with anti-NAC1 antibody (endogenous NAC1), Western blotting

binding: no binding
B1: FLAG-tagged CARM1-D2 (residues 2-483, ΔC-terminal) (domain or fragment, UniProt Q86X55 2-483)
chain: AAAAAAVGPGAGGAGSAVPGGAGPCATVSVFPGARLLTIGDANGEIQRHAEQQALRLEVRAGPDSAGIALYSHEDVCVFKCSVSRETECSRVGKQSFIITLGCNSVLIQFATPNDFCSFYNILKTCRGHTLERSVFSERTEESSAVQYFQFYGYLSQQQNMMQDYVRTGTYQRAILQNHTDFKDKIVLDVGCGSGILSFFAAQAGARKIYAVEASTMAQHAEVLVKSNNLTDRIVVIPGKVEEVSLPEQVDIIISEPMGYMLFNERMLESYLHAKKYLKPSGNMFPTIGDVHLAPFTDEQLYMEQFTKANFWYQPSFHGVDLSALRGAAVDEYFRQPVVDTFDIRILMAKSVKYTVNFLEAKEGDLHRIEIPFKFHMLHSGLVHGLAFWFDVAFIGSIMTVWLSTAPTEPLTHWYQVRCLFQSPLFAKAGDTLSGTCLLIANKRQSYDISIVAQVDQTGSKSSNLLDLKNPFFRYTGTTPSP
